Among the data in PMC11720480 are binding values, retold here.

This assay addresses T1, OsNAR2.1 (rice high-affinity nitrate transporter-activating protein 2.1), yeast two-hybrid fusion (O. sativa) (UniProt Q6ZI50).
T1 sequence: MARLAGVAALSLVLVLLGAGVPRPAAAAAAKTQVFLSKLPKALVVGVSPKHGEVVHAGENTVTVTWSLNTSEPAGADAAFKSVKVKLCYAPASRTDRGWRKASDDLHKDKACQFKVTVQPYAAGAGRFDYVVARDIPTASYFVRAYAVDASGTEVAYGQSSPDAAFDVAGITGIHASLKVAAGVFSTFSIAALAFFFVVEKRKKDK
Kind of assay: two-hybrid; yeast strain NMY51, vectors pBT3-STE and pPR3-N, co-transformants spotted on SD-Trp-Leu and SD-Trp-Leu-His-Ade, growth observed after 48-72 h.

Results are given in words; binding and its absence hold for the method and conditions named. Some binding calls cover weakened binding; strength is not graded here. Tags and fused reporters may be left off the sequences shown.

B1: OsNRT2.3a (rice high-affinity nitrate transporter 2.3), yeast two-hybrid fusion (protein, UniProt Q94JG1-1 1-516)
chain: MEAKPVAMEVEGVEAAGGKPRFRMPVDSDLKATEFWLFSFARPHMASFHMAWFSFFCCFVSTFAAPPLLPLIRDTLGLTATDIGNAGIASVSGAVFARLAMGTACDLVGPRLASASLILLTTPAVYCSSIIQSPSGYLLVRFFTGISLASFVSAQFWMSSMFSAPKVGLANGVAGGWGNLGGGAVQLLMPLVYEAIHKIGSTPFTAWRIAFFIPGLMQTFSAIAVLAFGQDMPGGNYGKLHKTGDMHKDSFGNVLRHALTNYRGWILALTYGYSFGVELTIDNVVHQYFYDRFDVNLQTAGLIAASFGMANIISRPGGGLLSDWLSSRYGMRGRLWGLWTVQTIGGVLCVVLGIVDFSFAASVAVMVLFSFFVQAACGLTFGIVPFVSRRSLGLISGMTGGGGNVGAVLTQYIFFHGTKYKTETGIKYMGLMIIACTLPVMLIYFPQWGGMLVGPRKGATAEEYYSREWSDHEREKGFNAASVRFAENSVREGGRSSANGGQPRHTVPVDASPAGV
As for B1, the binding result was “binds”.
